Data source: PubChem BioAssay AID1224830 (NIAID, 2016)

Purpose: 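Host factors that control LPS-induced TNF expression in human macrophages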 (primary screen)
Cell system: human THP-1 monocytic leukaemia cells, TNF dual-luciferase reporter clone, PMA-differentiated to macrophage-like cells
Knock-down reagent: siRNA pool against human genes, 50 nM
Duration: LPS for 4 h, given about 3 days after siRNA transfection
Conditions: bacterial LPS (TLR4 ligand), 10 ng/ml
Read-out: 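TNF firefly reporter luminescence divided by renilla, normalised to the plate median, then turned into a robust z-score for each replicate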
Direction: TNF reporter robust z-score: higher = stronger TNF reporter response to LPS
Call rule: 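Each well counts as active if its z-score is over 2.8 or under -1.5; controls are left without a call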
Here is a random part of about 18,000 reagents tested. Of all reagents, about 2,900 (16%) were called active. 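Calls are made per well; low scores hint the gene aids the LPS response, high scores that it dampens it.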 Repeated entries: four replicate wells of each siRNA pool.

{"gene": "PSMB9 (GeneID 5698)", "TNF reporter robust z-score": -0.91, "activity call": "inactive"}
{"gene": "PSMB9 (GeneID 5698)", "TNF reporter robust z-score": -0.33, "activity call": "inactive"}
{"gene": "PSMB9 (GeneID 5698)", "TNF reporter robust z-score": -0.98, "activity call": "inactive"}
{"gene": "PSMB9 (GeneID 5698)", "TNF reporter robust z-score": 0.4, "activity call": "inactive"}
{"gene": "FLOT2 (GeneID 2319)", "TNF reporter robust z-score": -0.92, "activity call": "inactive"}
{"gene": "FLOT2 (GeneID 2319)", "TNF reporter robust z-score": -1, "activity call": "inactive"}
{"gene": "FLOT2 (GeneID 2319)", "TNF reporter robust z-score": -1.1, "activity call": "inactive"}
{"gene": "FLOT2 (GeneID 2319)", "TNF reporter robust z-score": -1.19, "activity call": "inactive"}
{"gene": "FIS1 (GeneID 51024)", "TNF reporter robust z-score": 5.6, "activity call": "active"}
{"gene": "FIS1 (GeneID 51024)", "TNF reporter robust z-score": 3.99, "activity call": "active"}
{"gene": "FIS1 (GeneID 51024)", "TNF reporter robust z-score": 3.31, "activity call": "active"}
{"gene": "FIS1 (GeneID 51024)", "TNF reporter robust z-score": -0.28, "activity call": "inactive"}
{"gene": "TTYH1 (GeneID 57348)", "TNF reporter robust z-score": -0.58, "activity call": "inactive"}
{"gene": "TTYH1 (GeneID 57348)", "TNF reporter robust z-score": 0.4, "activity call": "inactive"}
{"gene": "TTYH1 (GeneID 57348)", "TNF reporter robust z-score": 2.35, "activity call": "inactive"}
{"gene": "TTYH1 (GeneID 57348)", "TNF reporter robust z-score": 1.57, "activity call": "inactive"}
{"gene": "PDHB (GeneID 5162)", "TNF reporter robust z-score": 3.78, "activity call": "active"}
{"gene": "PDHB (GeneID 5162)", "TNF reporter robust z-score": 1.58, "activity call": "inactive"}
{"gene": "PDHB (GeneID 5162)", "TNF reporter robust z-score": 0.35, "activity call": "inactive"}
{"gene": "PDHB (GeneID 5162)", "TNF reporter robust z-score": 2.53, "activity call": "inactive"}

The list goes on (4 carried over from the part before).
{"gene": "PDHB (GeneID 5162)", "TNF reporter robust z-score": 3.78, "activity call": "active"}
{"gene": "PDHB (GeneID 5162)", "TNF reporter robust z-score": 1.58, "activity call": "inactive"}
{"gene": "PDHB (GeneID 5162)", "TNF reporter robust z-score": 0.35, "activity call": "inactive"}
{"gene": "PDHB (GeneID 5162)", "TNF reporter robust z-score": 2.53, "activity call": "inactive"}
{"gene": "OR5T2 (GeneID 219464)", "TNF reporter robust z-score": 0.87, "activity call": "inactive"}
{"gene": "OR5T2 (GeneID 219464)", "TNF reporter robust z-score": 1.35, "activity call": "inactive"}
{"gene": "OR5T2 (GeneID 219464)", "TNF reporter robust z-score": 0.78, "activity call": "inactive"}
{"gene": "OR5T2 (GeneID 219464)", "TNF reporter robust z-score": 0.68, "activity call": "inactive"}
{"gene": "AKAP11 (GeneID 11215)", "TNF reporter robust z-score": -0.47, "activity call": "inactive"}
{"gene": "AKAP11 (GeneID 11215)", "TNF reporter robust z-score": -0.44, "activity call": "inactive"}
{"gene": "AKAP11 (GeneID 11215)", "TNF reporter robust z-score": -0.39, "activity call": "inactive"}
{"gene": "AKAP11 (GeneID 11215)", "TNF reporter robust z-score": -0.01, "activity call": "inactive"}
{"gene": "PECAM1 (GeneID 5175)", "TNF reporter robust z-score": 0.01, "activity call": "inactive"}
{"gene": "PECAM1 (GeneID 5175)", "TNF reporter robust z-score": 0.21, "activity call": "inactive"}
{"gene": "PECAM1 (GeneID 5175)", "TNF reporter robust z-score": -0.67, "activity call": "inactive"}
{"gene": "PECAM1 (GeneID 5175)", "TNF reporter robust z-score": 0.54, "activity call": "inactive"}
{"gene": "TIPE1 (GeneID 126282)", "TNF reporter robust z-score": -0.85, "activity call": "inactive"}
{"gene": "TIPE1 (GeneID 126282)", "TNF reporter robust z-score": -0.22, "activity call": "inactive"}
{"gene": "TIPE1 (GeneID 126282)", "TNF reporter robust z-score": -0.27, "activity call": "inactive"}
{"gene": "TIPE1 (GeneID 126282)", "TNF reporter robust z-score": -0.49, "activity call": "inactive"}
{"gene": "DGKB (GeneID 1607)", "TNF reporter robust z-score": -0.86, "activity call": "inactive"}
{"gene": "DGKB (GeneID 1607)", "TNF reporter robust z-score": -0.67, "activity call": "inactive"}
{"gene": "DGKB (GeneID 1607)", "TNF reporter robust z-score": -0.57, "activity call": "inactive"}
{"gene": "DGKB (GeneID 1607)", "TNF reporter robust z-score": -0.2, "activity call": "inactive"}
{"gene": "MRM1 (GeneID 79922)", "TNF reporter robust z-score": 2.27, "activity call": "inactive"}
{"gene": "MRM1 (GeneID 79922)", "TNF reporter robust z-score": 0.72, "activity call": "inactive"}
{"gene": "MRM1 (GeneID 79922)", "TNF reporter robust z-score": 1.38, "activity call": "inactive"}
{"gene": "MRM1 (GeneID 79922)", "TNF reporter robust z-score": 2.47, "activity call": "inactive"}
{"gene": "IKZF3 (GeneID 22806)", "TNF reporter robust z-score": 0.32, "activity call": "inactive"}
{"gene": "IKZF3 (GeneID 22806)", "TNF reporter robust z-score": 4.08, "activity call": "active"}
{"gene": "IKZF3 (GeneID 22806)", "TNF reporter robust z-score": -0.39, "activity call": "inactive"}
{"gene": "IKZF3 (GeneID 22806)", "TNF reporter robust z-score": 0.71, "activity call": "inactive"}
{"gene": "TRIM26 (GeneID 7726)", "TNF reporter robust z-score": -0.99, "activity call": "inactive"}
{"gene": "TRIM26 (GeneID 7726)", "TNF reporter robust z-score": 0.99, "activity call": "inactive"}
{"gene": "TRIM26 (GeneID 7726)", "TNF reporter robust z-score": 0.67, "activity call": "inactive"}
{"gene": "TRIM26 (GeneID 7726)", "TNF reporter robust z-score": 0.18, "activity call": "inactive"}
{"gene": "KCNAB1 (GeneID 7881)", "TNF reporter robust z-score": -1.54, "activity call": "active"}
{"gene": "KCNAB1 (GeneID 7881)", "TNF reporter robust z-score": -1, "activity call": "inactive"}
{"gene": "KCNAB1 (GeneID 7881)", "TNF reporter robust z-score": -1.34, "activity call": "inactive"}
{"gene": "KCNAB1 (GeneID 7881)", "TNF reporter robust z-score": -1.73, "activity call": "active"}
{"gene": "TMEM184C (GeneID 55751)", "TNF reporter robust z-score": -0.39, "activity call": "inactive"}
{"gene": "TMEM184C (GeneID 55751)", "TNF reporter robust z-score": 5.89, "activity call": "active"}
{"gene": "TMEM184C (GeneID 55751)", "TNF reporter robust z-score": -0.74, "activity call": "inactive"}
{"gene": "TMEM184C (GeneID 55751)", "TNF reporter robust z-score": 0.3, "activity call": "inactive"}
